Reference: PubChem BioAssay (NCATS)
Inconclusive results, whose numbers are uncertain, are shown with a selection of clear calls. Potencies beside an inconclusive call are fits to weak or partial responses and may not hold up. Calls of active or inactive are those of the source. Calls come from the whole dose curve; as a rule, active = well fitted curve in the direction sought with a large enough effect; inconclusive = small, poorly fitted or top-dose-only effect, or another doubt; inactive = no such curve, though single readings can be large; an effect the other way counts as inactive or inconclusive.

Experiment: Cell Proliferation Assay against the TMD8 Cell Line (Caspase readout at 16 hrs) (AID 651712);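 for caspase activation: 0% = DMSO and 100% = 9.2 µM bortezomib caspase activation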
Details: TMD8 lymphoma cells, caspase activation luminescence; series mostly up to 46.1 µM; caspase activation: at the top concentration
In short: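 16 h, 37 °C, TMD8 (500 cells/well), RPMI/5% FBS no phenol red; Caspase-Glo 3/7, 15 min RT, luminescence; %act: DMSO 0, bortezomib 9.2 uM final 100.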
Potency is the fitted concentration of half-maximal effect.

| SMILES | Potency | caspase activation |
| --- | --- | --- |
| Nc1ccccc1NC(=O)c1ccc(CNC(=O)OCc2cccnc2)cc1 | inconclusive: 10.5 µM [activator, partial curve] | – |
| O=C(N[C@@H](c1ccccc1)[C@@H]1CCCCN1)c1cccc(C(F)(F)F)c1Cl | inconclusive: 23.5 µM [activator, single point] | – |
| CNCc1ccc(-c2[nH]c3cc(F)cc4c3c2CCNC4=O)cc1 | inconclusive: 37.2 µM [activator, single point] | – |
| CC(C)C(=O)Nc1ncc(-c2cc(C(F)F)nn2-c2c(Cl)cccc2Cl)s1 | active: 16.6 µM | – |
| C[C@@H]1CN(Cc2ccc(F)cc2)[C@@H](C)CN1C(=O)c1cc2c(C(=O)C(=O)N(C)C)cn(C)c2cc1Cl | inconclusive: 26.4 µM [activator, single point] | – |
| Cc1csc(NC(=O)c2sc3nc4c(c(C(F)(F)F)c3c2N)CCC4)n1 | – | inactive: -1.26% |
| CC(C)[C@H](CO)Nc1nc(Nc2ccc(C(=O)O)c(Cl)c2)c2ncn(C(C)C)c2n1 | – | inactive: 5.07% |
| CNC(=O)c1ccc(C)c(-n2c(C)cc(OCc3ccc(F)cc3F)c(Br)c2=O)c1 | inconclusive: 33.2 µM [activator, single point] | – |
| COc1cc(Oc2ccnc3cc(OC)c(OC)cc23)ccc1NC(=O)NC(C)c1nccs1 (configuration not stated) | inconclusive: 33.2 µM [activator, single point] | – |
| CC1(C)OC2=C(C(=O)c3ccccc3C2=O)[C@H](NCc2ccccc2)[C@H]1O | – | inactive: 14.4% |

Experiment: Cell Proliferation Assay against the TMD8 Cell Line (Caspase readout at 8 hrs) (AID 651713);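 for caspase activation: 0% = DMSO and 100% = 9.2 µM bortezomib caspase signal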
Details: TMD8 lymphoma cells, caspase activation luminescence; caspase activation: at 46.1 µM (top of the series)
In short: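 Apoptosis readout: caspase 3/7 luminescence (Caspase-Glo), 15 min RT. Cells: TMD8, 500/well, RPMI + 5% FBS, no phenol red. Exposure 8 h, 37C. % activity vs DMSO = 0, bortezomib 9.2 uM final = 100.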

| SMILES | Potency | caspase activation |
| --- | --- | --- |
| CNCc1ccc(-c2[nH]c3cc(F)cc4c3c2CCNC4=O)cc1 | inconclusive: 33.2 µM [activator, single point] | – |
| CC(C)C(=O)Nc1ncc(-c2cc(C(F)F)nn2-c2c(Cl)cccc2Cl)s1 | – | inactive: 7.39% |
| CNC(=O)c1ccc(C)c(-n2c(C)cc(OCc3ccc(F)cc3F)c(Br)c2=O)c1 | – | inactive: -8.08% |
| COc1cc(Oc2ccnc3cc(OC)c(OC)cc23)ccc1NC(=O)NC(C)c1nccs1 (configuration not stated) | inconclusive: 37.2 µM [activator, single point] | – |
| COc1ncc(-c2ccc3nccc(-c4ccnnc4)c3c2)cc1NS(=O)(=O)c1ccc(F)cc1F | inconclusive: 18.7 µM [activator, partial curve, poor fit] | – |
| CC1(C)OC2=C(C(=O)c3ccccc3C2=O)[C@H](NCc2ccccc2)[C@H]1O | – | inconclusive: 88.4% [activator] |
| O=C1CCCC2=C1C(c1[nH]ncc1Cl)N=C(Nc1nc3ccccc3o1)N2 (configuration not stated) | – | inactive: 14.8% |
